# Laboratory results: PubChem BioAssay (NCATS)
# Sequences of proteins named here, by UniProt entry; tags and fusion partners are left off. A change or cut given only in a name is not applied to a line headed by its entry.
# UniProt Q8WZA2: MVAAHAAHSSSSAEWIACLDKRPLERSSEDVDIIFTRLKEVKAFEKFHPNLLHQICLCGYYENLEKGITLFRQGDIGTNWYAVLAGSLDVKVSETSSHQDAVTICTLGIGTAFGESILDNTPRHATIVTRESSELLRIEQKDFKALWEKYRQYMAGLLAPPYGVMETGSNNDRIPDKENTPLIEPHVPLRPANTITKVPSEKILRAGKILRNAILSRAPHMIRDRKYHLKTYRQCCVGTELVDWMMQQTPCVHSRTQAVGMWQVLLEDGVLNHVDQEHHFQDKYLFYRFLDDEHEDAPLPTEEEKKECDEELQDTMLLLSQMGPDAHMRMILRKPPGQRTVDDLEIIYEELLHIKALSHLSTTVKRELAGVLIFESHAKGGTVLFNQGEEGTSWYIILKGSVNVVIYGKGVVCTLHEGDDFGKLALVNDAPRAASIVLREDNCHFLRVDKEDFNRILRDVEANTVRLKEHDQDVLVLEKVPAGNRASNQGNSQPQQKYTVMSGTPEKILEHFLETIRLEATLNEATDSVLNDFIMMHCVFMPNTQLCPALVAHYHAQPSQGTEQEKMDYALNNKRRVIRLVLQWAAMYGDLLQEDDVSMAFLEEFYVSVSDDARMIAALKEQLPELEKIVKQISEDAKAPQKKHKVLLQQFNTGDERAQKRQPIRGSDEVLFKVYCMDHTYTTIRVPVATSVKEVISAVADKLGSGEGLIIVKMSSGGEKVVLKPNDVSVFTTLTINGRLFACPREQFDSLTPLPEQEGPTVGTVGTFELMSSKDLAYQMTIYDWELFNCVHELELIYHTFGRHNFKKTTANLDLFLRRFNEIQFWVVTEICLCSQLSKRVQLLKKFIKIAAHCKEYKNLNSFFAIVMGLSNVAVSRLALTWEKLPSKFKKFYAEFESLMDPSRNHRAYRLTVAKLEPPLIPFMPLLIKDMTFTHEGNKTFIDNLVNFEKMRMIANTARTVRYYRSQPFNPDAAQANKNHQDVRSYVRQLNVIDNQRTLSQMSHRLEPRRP
# The inconclusive results got no clear call from the source; some entries with a clear call stand among them for comparison. Potencies beside an inconclusive call are fits to weak or partial responses and may not hold up. Activity calls are given as the source filed them. Calls follow the shape of the dose curve; as a rule, active = well fitted inhibition curve with a large enough effect; inconclusive = small, poorly fitted or top-dose-only effect; inactive = no such curve, though single readings can be large or run the other way.
# Target: Rap guanine nucleotide exchange factor 4 (Homo sapiens) (UniProt Q8WZA2)
# Assay: Confirmatory qHTS for antagonist of cAMP-regulated guanine nucleotide exchange factor 4 (EPAC2) (AID 1645885); also: nearly all actives have a fitted effect of over 25% in size
# Conditions: EPAC2 Rap1B-BODIPY-GDP exchange fluorescence, biochemical; activity change, negative = inhibition: at 12.7 µM (top of the series) unless noted; series mostly up to 114 µM
# % is scaled to controls: 0 for no effect and ±100 for the full control effect; potency is read from the fitted curve at half-maximal effect.
SMILES,Potency,"activity change, negative = inhibition"
Cc1noc(C)c1COc1ccccc1C(=O)NCCc1ccc(Cl)cc1,"inconclusive: 47.8 µM [inhibitor, partial curve, poor fit]",
CC(C)(C)[C@H](N)C(=O)N[C@H]1CCC2C3CC=C4C[C@@H](O)CC[C@]4(C)C3CC[C@@]21C (stereo not given in full),,inactive: -12.6%
Nc1ncnc2nc(Sc3ccc(Cl)cc3)[nH]c12,,inactive: -5.78% [at 114 µM]
O=C(c1ccco1)N1N=C2CCCCCC2C1(O)C(F)(F)F (stereo not given),"inconclusive: 33.8 µM [inhibitor, full curve]",
COc1ccc(/C=C/C(=O)c2ccncc2)c2ccccc12,,inactive: -7.59%
